The values below come from publication PMC10551893.

By UniProt entry, the sequences of proteins in these tests, tags left out.
UniProt P63208: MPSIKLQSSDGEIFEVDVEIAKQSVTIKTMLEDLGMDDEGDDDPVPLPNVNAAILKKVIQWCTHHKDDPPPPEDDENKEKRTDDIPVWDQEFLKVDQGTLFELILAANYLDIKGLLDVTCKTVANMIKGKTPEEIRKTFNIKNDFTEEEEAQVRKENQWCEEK
UniProt Q9Y297: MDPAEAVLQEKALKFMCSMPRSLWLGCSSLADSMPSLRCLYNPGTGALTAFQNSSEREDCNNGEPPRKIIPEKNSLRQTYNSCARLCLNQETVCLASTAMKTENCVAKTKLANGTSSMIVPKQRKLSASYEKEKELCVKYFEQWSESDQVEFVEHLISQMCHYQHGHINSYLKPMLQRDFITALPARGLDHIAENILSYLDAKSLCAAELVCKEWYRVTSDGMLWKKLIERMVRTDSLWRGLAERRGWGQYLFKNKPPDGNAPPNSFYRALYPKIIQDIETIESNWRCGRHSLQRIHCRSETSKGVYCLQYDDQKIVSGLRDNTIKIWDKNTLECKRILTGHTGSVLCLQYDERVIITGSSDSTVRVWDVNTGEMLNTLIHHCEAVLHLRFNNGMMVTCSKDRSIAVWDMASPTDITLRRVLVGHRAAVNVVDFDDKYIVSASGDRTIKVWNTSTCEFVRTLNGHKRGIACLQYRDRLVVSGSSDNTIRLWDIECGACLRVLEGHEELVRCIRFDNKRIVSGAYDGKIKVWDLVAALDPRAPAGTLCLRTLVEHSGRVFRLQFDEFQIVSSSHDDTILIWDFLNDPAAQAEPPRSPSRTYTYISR

Numbering of substitutions follows the chain as printed. No constants are given. Whether binding was seen depends on the method and setting. Binding seen in cells or lysates may run through a third protein. Some entries that bind do so weakly or less than the wild type. For part of these data: Sequences can lack the tags named with a protein.

For assay [1], the target named is T1, HA-NRF2-S4A4 (S344A/S347A/S351A/S356A) (human) (UniProt Q16236).
T1 sequence: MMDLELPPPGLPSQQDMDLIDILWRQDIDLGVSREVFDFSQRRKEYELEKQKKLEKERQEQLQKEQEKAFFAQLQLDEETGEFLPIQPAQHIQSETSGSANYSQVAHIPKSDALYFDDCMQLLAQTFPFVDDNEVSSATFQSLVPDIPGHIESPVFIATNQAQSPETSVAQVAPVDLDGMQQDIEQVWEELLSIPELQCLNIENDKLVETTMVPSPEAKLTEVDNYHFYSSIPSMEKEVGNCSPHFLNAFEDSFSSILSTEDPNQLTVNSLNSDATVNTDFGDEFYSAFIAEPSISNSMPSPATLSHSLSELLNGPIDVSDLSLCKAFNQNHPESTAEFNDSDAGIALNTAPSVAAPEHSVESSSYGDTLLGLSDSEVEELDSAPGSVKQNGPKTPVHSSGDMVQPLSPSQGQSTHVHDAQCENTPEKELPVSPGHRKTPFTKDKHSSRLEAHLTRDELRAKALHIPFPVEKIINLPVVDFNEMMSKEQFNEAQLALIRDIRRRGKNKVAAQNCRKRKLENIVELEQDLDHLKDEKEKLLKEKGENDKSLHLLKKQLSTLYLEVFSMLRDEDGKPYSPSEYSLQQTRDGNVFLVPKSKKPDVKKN
As to the kind of experiment: co-IP; anti-HA affinity gel added to lysates of NRF2−/− cells transfected with HA-NRF2-WT or HA-NRF2-S4A4, 5 h at 4 °C; Western blot of β-TrCP, β-TrCP-343aa and HA. (In general: A western blot detects proteins with antibodies after separation by electrophoresis.)

The target in assay [2] is T2, NRF2 (human (endogenous in BT474-TR and SKBR3-TR)) (UniProt Q16236).
T2 sequence: T1 sequence with A344S, A347S, A351S, A356S
The assay is described as follows: co-IP; anti-NRF2 antibody and protein A/G magnetic beads added to lysates of BT474-TR and SKBR3-TR cells, 5 h at 4 °C; endogenous proteins; also in circ-β-TrCP-silenced cells transfected with circ-β-TrCP vectors (wild type or start codon mutant).

Assay [3] deals with SKP1 (human (endogenous in BT474-TR and SKBR3-TR)) (UniProt P63208). The assay is described as follows: co-IP; anti-SKP1 antibody and protein A/G magnetic beads added to lysates of BT474-TR and SKBR3-TR cells, 5 h at 4 °C; Western blot of SKP1, β-TrCP and β-TrCP-343aa; endogenous proteins.

In the case of β-TrCP (from UniProt Q9Y297 1-605), the figures for the binding entry in assay [1], in assay [2] and in assay [3] were “no binding”, “binds” and “binds”, respectively.
